Article PMC8304009

Target: Cyclin T (human)
Experiment: co-IP; transiently transfected HEK293T cells; lysis buffer 20 mM Tris-Cl pH 7.5, 0.5% NP-40, 150 mM NaCl; immunoprecipitation with anti-Flag antibody and protein G-agarose at 4 °C; Western blot

binding: binds
B1: HA-OGFOD1 (protein, UniProt Q8N543 1-542)
chain: MNGKRPAEPGPARVGKKGKKEVMAEFSDAVTEETLKKQVAEAWSRRTPFSHEVIVMDMDPFLHCVIPNFIQSQDFLEGLQKELMNLDFHEKYNDLYKFQQSDDLKKRREPHISTLRKILFEDFRSWLSDISKIDLESTIDMSCAKYEFTDALLCHDDELEGRRIAFILYLVPPWDRSMGGTLDLYSIDEHFQPKQIVKSLIPSWNKLVFFEVSPVSFHQVSEVLSEEKSRLSISGWFHGPSLTRPPNYFEPPIPRSPHIPQDHEILYDWINPTYLDMDYQVQIQEEFEESSEILLKEFLKPEKFTKVCEALEHGHVEWSSRGPPNKRFYEKAEESKLPEILKECMKLFRSEALFLLLSNFTGLKLHFLAPSEEDEMNDKKEAETTDITEEGTSHSPPEPENNQMAISNNSQQSNEQTDPEPEENETKKESSVPMCQGELRHWKTGHYTLIHDHSKAEFALDLILYCGCEGWEPEYGGFTSYIAKGEDEELLTVNPESNSLALVYRDRETLKFVKHINHRSLEQKKTFPNRTGFWDFSFIYYE

Results are given in words; binding and its absence hold for the method and conditions named. In cells and extracts the contact can be indirect. Binding can be weak; no strength is given. Tags and fused reporters may be left off the sequences shown.
